Source: PubChem BioAssay AID1053209 (Peter MacCallum Cancer Centre, 2014)

Aim: 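Knock-downs that sensitise mouse osteosarcoma cells to doxorubicin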 (follow-up of hits)
Cells: mouse primary osteosarcoma cells
Reagent: single siRNA against mouse genes, 25 nM (text also states 40 nM)
Duration: about 120 h (48 h before drug, then 72 h with drug)
Conditions: doxorubicin 100 nM (about IC30-40), added 48 h after transfection, for 72 h
Measured: 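Viability measured by ATP luminescence with and without doxorubicin, each replicate scaled to non-targeting siRNA NT1, averaged over two replicates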
Scale: viability with doxorubicin, vs NT1: higher = more viable cells under doxorubicin; viability without drug, vs NT1: higher = more viable cells without drug
Call rule: 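Active when doxorubicin viability is at most 0.7 of NT1 and drug-free viability lies between 0.7 and 1.1, class LC dox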
In all, the deposit lists about 1,580 reagents; below is a part drawn at random. In the full data, 207 (13%) got an active call. 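Rows are single siRNAs; four siRNAs per gene were tested, a gene counting as confirmed only when at least two agree.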 Not all columns of the deposit are shown.

| Target gene | PubChem SID | combined effect class | viability with doxorubicin, vs NT1 | viability without drug, vs NT1 | Call |
| --- | --- | --- | --- | --- | --- |
| Rpl7a | SID152266896 | low viability with and without drug | 0.3 | 0.44 | inactive |
| Rpl7a | SID152276857 | low viability with and without drug | 0.24 | 0.28 | inactive |
| Rpl7a | SID152287292 | low viability with and without drug | 0.4 | 0.57 | inactive |
| Rpl7a | SID152305954 | low viability with and without drug | 0.3 | 0.46 | inactive |
| Mrpl48 | SID152268671 | normal viability with and without drug | 1.09 | 0.84 | inactive |
| Mrpl48 | SID152297394 | low viability only with doxorubicin; normal without drug | 0.68 | 0.92 | active |
| Mrpl48 | SID152306526 | normal viability with and without drug | 0.9 | 0.98 | inactive |
| Mrpl48 | SID152341993 | high viability only with doxorubicin | 1.1 | 1.04 | inactive |
| Nup160 | SID152261532 | low viability only with doxorubicin; normal without drug | 0.58 | 0.71 | active |
| Nup160 | SID152273469 | low viability with and without drug | 0.44 | 0.57 | inactive |
| Nup160 | SID152277033 | low viability with and without drug | 0.48 | 0.66 | inactive |
| Nup160 | SID152288306 | normal viability with and without drug | 0.97 | 0.95 | inactive |
| Cdc23 | SID152259962 | normal viability with and without drug | 0.88 | 0.99 | inactive |
| Cdc23 | SID152289861 | normal viability with and without drug | 1.06 | 1.05 | inactive |
| Cdc23 | SID152302711 | normal viability with and without drug | 1.07 | 1 | inactive |
| Cdc23 | SID152340968 | low viability only with doxorubicin; normal without drug | 0.68 | 0.92 | active |
| Sel1l3 | SID152298707 | normal viability with and without drug | 0.72 | 0.84 | inactive |
| Sel1l3 | SID152316862 | normal viability with and without drug | 0.92 | 1 | inactive |
| Sel1l3 | SID152328871 | high viability only without drug | 1 | 1.1 | inactive |
| Sel1l3 | SID152337764 | normal viability with and without drug | 1.02 | 0.98 | inactive |
| Nuf2 | SID152271409 | low viability with and without drug | 0.66 | 0.67 | inactive |
| Nuf2 | SID152271534 | normal viability with and without drug | 0.96 | 0.97 | inactive |
| Nuf2 | SID152290457 | low viability only with doxorubicin; normal without drug | 0.56 | 0.8 | active |
| Nuf2 | SID152303895 | normal viability with and without drug | 0.87 | 0.88 | inactive |
| Eny2 | SID152271785 | normal viability with and without drug | 0.96 | 0.89 | inactive |
| Eny2 | SID152310524 | normal viability with and without drug | 0.84 | 1.02 | inactive |
| Eny2 | SID152313373 | low viability only with doxorubicin; normal without drug | 0.62 | 0.94 | active |
| Eny2 | SID152333573 | normal viability with and without drug | 1.03 | 0.96 | inactive |
| Prkab2 | SID152263801 | normal viability with and without drug | 0.97 | 0.9 | inactive |
| Prkab2 | SID152271805 | normal viability with and without drug | 0.96 | 1.04 | inactive |
| Prkab2 | SID152281239 | normal viability with and without drug | 0.98 | 0.98 | inactive |
| Prkab2 | SID152324476 | high viability only with doxorubicin | 1.17 | 1.02 | inactive |
| Rps11 | SID152263290 | low viability with and without drug | 0.25 | 0.42 | inactive |
| Rps11 | SID152311359 | low viability with and without drug | 0.57 | 0.64 | inactive |
| Rps11 | SID152316233 | low viability with and without drug | 0.18 | 0.42 | inactive |
| Rps11 | SID152330860 | low viability with and without drug | 0.17 | 0.4 | inactive |
| Sf3b3 | SID152267580 | low viability only with doxorubicin; normal without drug | 0.65 | 0.85 | active |
| Sf3b3 | SID152283213 | low viability only with doxorubicin; normal without drug | 0.44 | 0.78 | active |
| Sf3b3 | SID152291654 | low viability only with doxorubicin; normal without drug | 0.6 | 0.9 | active |
| Sf3b3 | SID152328668 | normal viability with and without drug | 0.74 | 0.94 | inactive |

Records listed so far whose target name begins with R or r (8):
| Target gene | PubChem SID | combined effect class | viability with doxorubicin, vs NT1 | viability without drug, vs NT1 | Call |
| --- | --- | --- | --- | --- | --- |
| Rpl7a | SID152266896 | low viability with and without drug | 0.3 | 0.44 | inactive |
| Rpl7a | SID152276857 | low viability with and without drug | 0.24 | 0.28 | inactive |
| Rpl7a | SID152287292 | low viability with and without drug | 0.4 | 0.57 | inactive |
| Rpl7a | SID152305954 | low viability with and without drug | 0.3 | 0.46 | inactive |
| Rps11 | SID152263290 | low viability with and without drug | 0.25 | 0.42 | inactive |
| Rps11 | SID152311359 | low viability with and without drug | 0.57 | 0.64 | inactive |
| Rps11 | SID152316233 | low viability with and without drug | 0.18 | 0.42 | inactive |
| Rps11 | SID152330860 | low viability with and without drug | 0.17 | 0.4 | inactive |
